Data published in article PMC9104804, “Fine-Tuning Modulation of Oxidation-Mediated Posttranslational Control of Bradyrhizobium diazoefficiens FixK2 Transcription Factor”.
The exact form of at least one protein or probe is not confirmed. Weaker means in comparison with the reference protein, sequence or condition of that experiment. Tags and fusion partners may be left off the protein sequences shown.

Target: T1, C183D FixK2 (Bradyrhizobium diazoefficiens 110spc4) (UniProt O69245)
T1 sequence (looked up, limits assumed): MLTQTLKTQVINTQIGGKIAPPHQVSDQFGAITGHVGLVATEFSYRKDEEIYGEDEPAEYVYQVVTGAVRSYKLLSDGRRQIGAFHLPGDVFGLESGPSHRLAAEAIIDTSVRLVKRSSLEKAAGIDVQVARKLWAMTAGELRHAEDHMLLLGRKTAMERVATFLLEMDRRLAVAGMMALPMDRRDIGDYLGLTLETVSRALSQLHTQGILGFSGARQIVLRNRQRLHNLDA
Assay: SPR
Conditions: interacted poorly, no Kd or kinetics calculable, non-specific at high concentrations (up to 3 uM); 5'-biotin on reverse strand (S47); SPR: 40 mM Tris-HCl pH 7.0, 150 mM KCl, 0.1 mM EDTA, 0.005% Tween 20, 25 °C; recombinant protein; label: biotin

“CCACCTATCTTGATTTCAATCAATTCCCCG (double strand) [fixN_3 FixK2 box duplex (SPR)]”: binds more weakly.
